Assay results reported in the supplement of paper PMC4807443.
Structures can show the parent of a compound that is named as a salt. The list shows a part of the results. The numbers are fractions of the control, whatever unit the source prints. Most values lie at the level of the controls, where differences are scatter.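 MIN6, a mouse insulinoma beta-cell line, stably carries a lentiviral reporter where Pdx1 and Ins1 promoters each drive a nuclear fluorescent protein; Hoechst staining and automated imaging counted cells. Drugs were candidate hits if Ins1 promoter readout exceeded two median absolute deviations from DMSO controls while Pdx1 activity stayed near normal.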

System: MIN6
Assay: % Pdx1+ Ins1-low (RFP-only, immature) cells relative to DMSO control (fold of DMSO control); higher = more immature Pdx1+/Ins1-low cells
Details: 8.5 µM; 48 h; glucose 5 mM

SMILES | % Pdx1+ Ins1-low
OCc1cc(C(O)CNCCCCCCOCCCCc2ccccc2)ccc1O (configuration not stated) [Salmeterol] | 0.951
CCn1cc(C(=O)O)c(=O)c2cnc(N3CCCC3)nc21 [Piromidic acid] | 0.642
Cn1c(-c2ccc3c(c2)OCO3)cc(=O)c2ccccc21 [Graveoline] | 1.09
CC(=O)[C@H]1CC[C@H]2[C@@H]3C[C@H](C)C4=CC(=O)CC[C@]4(C)[C@H]3[C@@H](O)C[C@]12C [Medrysone] | 1.01
O=C(O)c1cc(-c2ccc(F)cc2F)ccc1O [Diflunisal] | 0.9
CCCCNC(=O)NS(=O)(=O)c1ccc(C)cc1 [Tolbutamide] | 0.791
CC(C)C(=O)Nc1ccc([N+](=O)[O-])c(C(F)(F)F)c1 [Flutamide] | 0.498
COc1c2c(nc3ccccc13)OC(C(C)(O)CO)C2 (configuration not stated) [Dubinidine] | 0.387
Cn1cnc([N+](=O)[O-])c1Sc1ncnc2[nH]cnc12 [Azathioprine] | 0.651
COC(=O)C1=C(C)NC(C)=C(C(=O)OC(C)C)C1c1cccc2nonc12 (configuration not stated) [Isradipine] | 0.614
CC(=O)SCC(Cc1ccccc1)C(=O)NCC(=O)OCc1ccccc1 (configuration not stated) [Racecadotril] | 0.92
C[C@H](CCC(=O)O)[C@H]1CC[C@H]2[C@@H]3CC[C@@H]4C[C@H](O)CC[C@]4(C)[C@H]3CC[C@]12C [Lithocholic acid] | 0.779
CC1COc2c(N3CCN(C)CC3)c(F)cc3c(=O)c(C(=O)O)cn1c23 (configuration not stated) [Ofloxacin] | 0.739
C[C@@]1(O)CCOC(=O)C1 [Mevalonic-D, L acid lactone] | 1.33
COCC(=O)Nc1c(I)c(C(=O)NCC(O)CO)c(I)c(C(=O)N(C)CC(O)CO)c1I (configuration not stated) [Iopromide] | 0.737
O=C(O)CCCC[C@@H]1SC[C@@H]2NC(=O)N[C@@H]21 [Biotin] | 1.35
NCCC[C@H](N)CC(=O)N[C@H]1CNC(=O)[C@H]([C@H]2C[C@H](O)NC(N)=N2)NC(=O)/C(=C/NC(N)=O)NC(=O)[C@H](CO)NC(=O)[C@H](CO)NC1=O [Viomycin sulfate] | 0.664
NC(CO)C(=O)NNCc1ccc(O)c(O)c1O (configuration not stated) [Benserazide hydrochloride] | 0.777
CN(C)CCCN1c2ccccc2CCc2ccccc21 [Imipramine hydrochloride] | 0.967
Fc1ccc([C@@H]2CCNC[C@H]2COc2ccc3c(c2)OCO3)cc1 [Paroxetine Hydrochloride] | 0.625
CN1CCC(OC(c2ccccc2)c2ccccc2)CC1 [Diphenylpyraline hydrochloride] | 1.24
NCC[C@H](O)C(=O)N[C@@H]1C[C@H](N)[C@@H](O[C@H]2O[C@H](CN)[C@@H](O)[C@H](O)[C@H]2O)[C@H](O)[C@H]1O[C@H]1O[C@H](CO)[C@@H](O)[C@H](N)[C@H]1O [Amikacin hydrate] | 1.64
O=C1CCC(N2C(=O)c3ccccc3C2=O)C(=O)N1 (configuration not stated) [Thalidomide] | 0.839
CC1(C)S[C@@H]2[C@H](NC(=O)Cc3ccccc3)C(=O)N2[C@H]1C(=O)O [Benzylpenicillin sodium] | 0.795

Two consecutive records out of the list so far, quoted:
SMILES | % Pdx1+ Ins1-low
NCC[C@H](O)C(=O)N[C@@H]1C[C@H](N)[C@@H](O[C@H]2O[C@H](CN)[C@@H](O)[C@H](O)[C@H]2O)[C@H](O)[C@H]1O[C@H]1O[C@H](CO)[C@@H](O)[C@H](N)[C@H]1O [Amikacin hydrate] | 1.64
O=C1CCC(N2C(=O)c3ccccc3C2=O)C(=O)N1 (configuration not stated) [Thalidomide] | 0.839

Next part.

SMILES | % Pdx1+ Ins1-low
CC1(C)S[C@@H]2[C@H](NC(=O)Cc3ccccc3)C(=O)N2[C@H]1C(=O)O [Benzathine benzylpenicillin] | 0.796
CC(=O)OCC1=C(C(=O)O)N2C(=O)[C@@H](NC(=O)Cc3cccs3)[C@H]2SC1 [Cephalothin sodium salt] | 0.984
Clc1ccc(C(Cn2ccnc2)OCc2csc3c(Cl)cccc23)c(Cl)c1 (configuration not stated) [Sertaconazole nitrate] | 0.987
CCN(CC)CCNC(=O)COc1ccc(OC)cc1 [Mefexamide hydrochloride] | 1.26
C[n+]1ccccc1/C=N/O [Pralidoxime chloride] | 0.833
Cc1cccc(Nc2ccccc2C(=O)O)c1C [Mefenamic acid] | 0.941
O=C(O)[C@]1(O)C[C@@H](O)[C@@H](O)[C@H](O)C1 [Quinic acid] | 0.701
CNCCCN1c2ccccc2CCc2ccccc21 [Desipramine hydrochloride] | 0.818
O=C1OC(CN2CCOCC2)CN1/N=C/c1ccc([N+](=O)[O-])o1 (configuration not stated) [Furaltadone hydrochloride] | 1.22
Cn1c(=O)c2c(ncn2CCO)n(C)c1=O [Etofylline] | 1.1
C#CCN(C)CCCOc1ccc(Cl)cc1Cl [Clorgyline hydrochloride] | 0.35
O=C(O)CN(CCN(CC(=O)O)CC(=O)O)CCN(CC(=O)O)CC(=O)O [Pentetic acid] | 0.621
CC(C)NCC(O)c1cc(O)cc(O)c1 (configuration not stated) [Metaproterenol sulfate, orciprenaline sulfate] | 0.796
CCN(CC)Cc1cc(Nc2ccnc3cc(Cl)ccc23)ccc1O [Amodiaquin dihydrochloride dihydrate] | 0.833
CCC(=O)OCC(=O)[C@@]1(OC(=O)CC)[C@@H](C)C[C@H]2[C@@H]3CCC4=CC(=O)C=C[C@]4(C)[C@@]3(Cl)[C@@H](O)C[C@@]21C [Beclomethasone dipropionate] | 1.29
O=C(/C=C/C=C/c1ccc2c(c1)OCO2)N1CCCCC1 [Piperine] | 0.996
COc1ccccc1N1CCN(CCCNc2cc(=O)n(C)c(=O)n2C)CC1 [Urapidil hydrochloride] | 1.14
CCCCNc1ccc(C(=O)OCCN(C)C)cc1 [Tetracaïne hydrochloride] | 1.45
CN(C)[C@@H]1C(O)=C(C(=O)NCNCCCC[C@H](N)C(=O)O)C(=O)[C@@]2(O)C(O)=C3C(=O)c4c(O)cccc4[C@@](C)(O)[C@H]3C[C@@H]12 [Lymecycline] | 1.01
CCN(CC)CCOc1ccc(C(=C(Cl)c2ccccc2)c2ccccc2)cc1 [Clomiphene citrate (Z,E)] | 1.19
CN1CCC(=C2c3ccccc3CCc3sccc32)CC1 [Pizotifen malate] | 1.13
CN1CCOC(c2ccccc2)c2ccccc2C1 (configuration not stated) [Nefopam hydrochloride] | 0.908
Cc1cnc(C(=O)NCCc2ccc(S(=O)(=O)NC(=O)NC3CCCCC3)cc2)cn1 [Glipizide] | 0.462
